Paper PMC9022993
These are yes or no findings as the source states them, for the method shown.

Chains of the proteins cited; added tags and fusions are not shown.
UniProt O60260: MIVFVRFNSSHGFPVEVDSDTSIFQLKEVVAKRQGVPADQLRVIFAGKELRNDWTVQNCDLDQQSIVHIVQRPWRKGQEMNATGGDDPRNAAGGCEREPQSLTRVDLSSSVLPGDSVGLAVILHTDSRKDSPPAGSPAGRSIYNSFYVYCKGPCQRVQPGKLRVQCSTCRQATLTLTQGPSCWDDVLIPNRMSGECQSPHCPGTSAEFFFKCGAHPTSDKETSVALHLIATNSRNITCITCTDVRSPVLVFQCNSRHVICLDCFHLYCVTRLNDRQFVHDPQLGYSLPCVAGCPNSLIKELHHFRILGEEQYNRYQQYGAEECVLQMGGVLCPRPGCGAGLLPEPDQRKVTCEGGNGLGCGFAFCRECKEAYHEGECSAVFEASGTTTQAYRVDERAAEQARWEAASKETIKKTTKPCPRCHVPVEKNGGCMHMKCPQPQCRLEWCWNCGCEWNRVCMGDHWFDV

Target: human parkin, full-length, affinity tag cleaved (human) (UniProt O60260)
Experiment: MST + ITC; parkin with CISD1 (Supplementary Fig. S2); the text names 'either MST or ITC' and does not tell which was used for CISD1; both purified

B1: human CISD1 (residues 32-108), entire extramembranous portion (domain or fragment, UniProt Q9NZ45 32-108)
chain: KRFYVKDHRNKAMINLHIQKDNPKIVHAFDMEDLGDKAVYCRCWRSKKFPFCDGAHTKHNEETGDNVGPLIIKKKET
With B1 the binding was “no binding (tested: Kd greater than 100 µM)”.
